PMC9034549
Results are given in words; binding and its absence hold for the method and conditions named. In cells and extracts the contact can be indirect. A yes stands for co-enrichment or nearness to the bait. Other partners may have been found.

The chains behind the UniProt entries cited, without tags or fusion partners.
UniProt Q9NS91: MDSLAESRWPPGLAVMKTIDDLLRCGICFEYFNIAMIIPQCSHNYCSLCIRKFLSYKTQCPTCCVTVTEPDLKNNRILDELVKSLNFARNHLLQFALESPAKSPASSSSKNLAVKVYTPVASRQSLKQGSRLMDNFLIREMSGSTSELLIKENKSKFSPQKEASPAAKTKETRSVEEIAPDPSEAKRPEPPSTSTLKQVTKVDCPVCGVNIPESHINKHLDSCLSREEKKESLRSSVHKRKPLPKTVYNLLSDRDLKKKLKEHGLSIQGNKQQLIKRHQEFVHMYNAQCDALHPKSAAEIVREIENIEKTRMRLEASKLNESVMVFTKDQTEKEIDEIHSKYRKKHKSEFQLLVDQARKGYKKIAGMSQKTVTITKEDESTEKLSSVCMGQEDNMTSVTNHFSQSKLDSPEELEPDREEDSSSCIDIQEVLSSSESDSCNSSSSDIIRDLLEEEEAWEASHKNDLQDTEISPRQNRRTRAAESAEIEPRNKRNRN
UniProt P12004: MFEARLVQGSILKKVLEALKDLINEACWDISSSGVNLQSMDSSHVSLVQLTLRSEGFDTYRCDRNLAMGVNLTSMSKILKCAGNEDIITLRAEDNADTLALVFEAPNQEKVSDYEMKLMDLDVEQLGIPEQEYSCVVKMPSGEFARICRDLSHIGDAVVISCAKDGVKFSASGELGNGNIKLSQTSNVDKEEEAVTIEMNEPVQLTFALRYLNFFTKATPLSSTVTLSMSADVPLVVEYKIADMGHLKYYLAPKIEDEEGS
UniProt P27694: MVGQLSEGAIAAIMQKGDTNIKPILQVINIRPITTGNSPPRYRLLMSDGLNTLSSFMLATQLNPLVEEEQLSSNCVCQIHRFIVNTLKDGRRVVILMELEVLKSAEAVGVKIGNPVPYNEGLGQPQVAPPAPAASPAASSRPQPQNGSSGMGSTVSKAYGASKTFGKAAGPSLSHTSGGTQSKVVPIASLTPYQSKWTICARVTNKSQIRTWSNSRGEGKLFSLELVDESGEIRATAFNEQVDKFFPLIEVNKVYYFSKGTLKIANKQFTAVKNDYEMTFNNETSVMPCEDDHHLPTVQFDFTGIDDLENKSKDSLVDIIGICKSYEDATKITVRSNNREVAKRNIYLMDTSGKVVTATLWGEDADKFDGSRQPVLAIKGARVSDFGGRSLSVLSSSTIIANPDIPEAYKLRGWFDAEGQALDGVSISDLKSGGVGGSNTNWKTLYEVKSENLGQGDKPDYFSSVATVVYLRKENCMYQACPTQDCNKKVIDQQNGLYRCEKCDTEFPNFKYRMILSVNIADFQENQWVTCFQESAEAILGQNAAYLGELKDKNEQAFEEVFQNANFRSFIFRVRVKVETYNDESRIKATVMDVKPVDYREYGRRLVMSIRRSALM

Target: E3 ubiquitin-protein ligase Rad18 (human (endogenous in 143B)) (UniProt Q9NS91)
Assay: affinity purification with mass spectrometry; lysate of 143B cells treated with 5 μM doxorubicin for 6 h, immunoprecipitated with an anti-Rad18 antibody; SDS-PAGE, silver staining, band cut out for mass spectrometry

Row | Substance | binding
1 | PCNA (from UniProt P12004 1-261) | binds
2 | RPA1 (from UniProt P27694 1-616) | binds
